PubChem BioAssay AID602196 – INSERM – 2012
The deposit covers about 23,000 reagents; below is a part drawn at random. Over the whole deposit, 455 (2%) are marked active. 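Active includes both protection and sensitisation; some change values fall well beyond the stated -50 to +50 range.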 The numbers tell different reagents against one gene apart. Not all columns of the deposit are shown. The record does not give: the amount of reagent.

- Screen: 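Knock-downs that protect lung cancer cells from cisplatin or sensitise them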
- System: human A549 lung cancer cells
- Reagent: siRNA pair against human genes
- Timing: 48 h transfection before cisplatin; time from cisplatin to read-out not stated
- Conditions: cisplatin at a dose killing half of control-siRNA cells; exact dose and duration not given
- Measured: 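Cisplatin cell death as a shift from the 50% death seen with control siRNA; siRNAs toxic or growth-blocking alone scored 0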
- Scale: two-siRNA summed score (-2 to +2): higher = both siRNAs protect from cisplatin killing; -2 means both sensitise
- Call rule: 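Each siRNA scores 0 if harmful alone by LDH or WST-1, otherwise +1 if it reduces and -1 if it increases cisplatin killing; a gene is active when both siRNAs agree (sum +2 or -2)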
- Calls: active = both siRNAs shift cisplatin killing the same way; inactive = no consistent shift, or siRNA harmful alone

Against LOC441372, the values are two-siRNA summed score (-2 to +2) = 1; inactive.
GLRA1 gave two-siRNA summed score (-2 to +2) = 0; inactive.
Depletion of STAU2 gave: two-siRNA summed score (-2 to +2) = -1; inactive.
For LOC401466 the deposit lists two-siRNA summed score (-2 to +2) = 1; inactive.
Against GFRA1, the values are two-siRNA summed score (-2 to +2) = 1; inactive.
Silencing of GCN1 resulted in: two-siRNA summed score (-2 to +2) = 1; inactive.
With knock-down of LOC442745 the results were two-siRNA summed score (-2 to +2) = 0; inactive.
After knock-down of C17orf78, the record shows two-siRNA summed score (-2 to +2) = 0; inactive.
After knock-down of MYH2 the results were two-siRNA summed score (-2 to +2) = 0; inactive.
GLRX5 gave two-siRNA summed score (-2 to +2) = 0; inactive.
After knock-down of DAZL, the record shows two-siRNA summed score (-2 to +2) = 0; inactive.
Depletion of SYT16 came out at: two-siRNA summed score (-2 to +2) = 0; inactive.
Against UMODL1-AS1, the entry reads two-siRNA summed score (-2 to +2) = 0; inactive.
For LINC00304, the entry reads two-siRNA summed score (-2 to +2) = 0; inactive.
With knock-down of SPMIP9 the results were two-siRNA summed score (-2 to +2) = 0; inactive.
With knock-down of LOC400320, the screen gave two-siRNA summed score (-2 to +2) = 0; inactive.

Taken from above:
Value for GLRX5 in “Outcome”: inactive
LOC400320, two-siRNA summed score (-2 to +2): 0
For “two-siRNA summed score (-2 to +2)”, GLRA1 is entered as 0
MYH2, Outcome: inactive

More reagents follow:
Knock-down of ZNF561-AS1 resulted in: two-siRNA summed score (-2 to +2) = 0; inactive.
Against SRD5A1 #1, the entry reads two-siRNA summed score (-2 to +2) = -1; inactive.
For SRD5A1 #2, the values are two-siRNA summed score (-2 to +2) = -1; inactive.
With knock-down of MRGPRX1 the results were two-siRNA summed score (-2 to +2) = 1; inactive.
After knock-down of ORM2 the results were two-siRNA summed score (-2 to +2) = 0; inactive.
After knock-down of ZNF777, the record shows two-siRNA summed score (-2 to +2) = 0; inactive.
Silencing of IL1A resulted in: two-siRNA summed score (-2 to +2) = 0; inactive.
After knock-down of TBC1D19 the results were two-siRNA summed score (-2 to +2) = -1; inactive.
Against UPP2, the entry reads two-siRNA summed score (-2 to +2) = 0; inactive.
Depletion of CENPU resulted in: two-siRNA summed score (-2 to +2) = 0; inactive.
Depletion of TREH gave: two-siRNA summed score (-2 to +2) = -1; inactive.
After knock-down of POLR1H, the screen gave two-siRNA summed score (-2 to +2) = 0; inactive.
After knock-down of LOC439948, the screen gave two-siRNA summed score (-2 to +2) = 1; inactive.
CDK3 showed two-siRNA summed score (-2 to +2) = 0; inactive.
Depletion of ITIH2 gave: two-siRNA summed score (-2 to +2) = 0; inactive.
